Measured values as given in the supplement of paper PMC9254222.
The full ranking holds about 1,100 compounds; the median of “Wnt reporter firefly/Renilla luciferase ratio relative to plate median” is about 1.1, and the highest 2% start at about 1.6. The list shows a part of the results, in another mix than the full data.

Test system: HEK293T (UBE3A T485A transfected, BAR Wnt reporter)
Assay: Wnt reporter firefly/Renilla luciferase ratio relative to plate median (fold (linear ratio)); higher = more Wnt/beta-catenin reporter activation
Conditions: 24 h
In short: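 HEK293T cells were grown in DMEM with 10% FBS at 37°C and 5% CO2, at 4500 cells/well in white 384-well plates. They were transfected with a BAR firefly luciferase Wnt reporter, TK-Renilla and an expression plasmid using Fugene 6. Four hours later, robots dosed the chemicals at 0.01–100 uM for 24 h, followed by Dual-Glo luciferase readout. Wnt activity (firefly/Renilla ratio) and cell health (raw Renilla) were median-centred per plate, averaged over four biological replicates.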

Structure (SMILES) | Wnt reporter firefly/Renilla luciferase ratio (concentration: 0.1 uM) | Wnt reporter firefly/Renilla luciferase ratio (concentration: 1 uM) | Wnt reporter firefly/Renilla luciferase ratio (concentration: 10 uM) | Wnt reporter firefly/Renilla luciferase ratio (concentration: 100 uM) | Wnt reporter firefly/Renilla luciferase ratio (concentration: 0.01 uM)
O=c1ccc2ccccc2o1 [Coumarin] | 0.953 | 1.2 | 1.07 | 1.05 | –
COCCOC[C@H](CC1(C(=O)N[C@H]2CC[C@@H](C(=O)O)CC2)CCCC1)C(=O)Oc1ccc2c(c1)CCC2 [Candoxatril] | 1.15 | 1.05 | 1 | 0.894 | –
CC/C(=C(\c1ccccc1)c1ccc(OCCN(C)C)cc1)c1ccccc1 [Tamoxifen] | 1.04 | 0.926 | 1.02 | 0.288 | –
CSC(=O)c1cccc2nnsc12 [Acibenzolar-S-methyl] | 0.92 | 0.985 | 0.879 | 1.58 | 0.853
CCCCC(CC)C(=O)OCCOCCOCCOC(=O)C(CC)CCCC (centres undefined) [Triethylene glycol bis(2-ethylhexanoate)] | 0.896 | 0.908 | 0.965 | 1.43 | –
Cc1cc(NC(=O)C(=O)O)cc(C)c1Oc1ccc(O)c2c1CCC2 | 0.867 | 0.945 | 1 | 0.848 | –
CNCc1ccc(NC(=O)c2c[nH]c3c2C(=O)CCC3)cc1 | 1.24 | 1.06 | 1.69 | 0.318 | –
OCCC(F)(F)C(F)(F)C(F)(F)C(F)(F)C(F)(F)C(F)(F)C(F)(F)C(F)(F)F [1,1,2,2-Tetrahydroperfluoro-1-decanol] | 1.3 | 0.898 | 1.2 | 1.28 | –
Nc1ccc2c(c1)C(=O)c1ccccc1C2=O [2-Aminoanthraquinone] | 1.06 | 1.2 | 1.28 | 1.58 | –
O=C(O)c1cccc(C(=O)O)c1 [1,3-Benzenedicarboxylic acid] | 1.21 | 1.28 | 1.24 | 1.02 | –
O=[Si]=O [Silica] | 1.49 | 1.17 | 1.18 | 1.52 | –
CC(C)CC(C)O (centres undefined) [4-Methyl-2-pentanol] | 0.96 | 1.03 | 1.3 | 1.28 | –
NC1CCCCC1 [Cyclohexylamine] | 0.893 | 0.987 | 0.752 | 1.05 | –
O=C(O)c1ccccc1 [Benzoic acid] | 1.19 | 0.956 | 0.996 | 1.03 | –
COc1ccc2cc(S(=O)(=O)NC(CC(=O)NC(Cc3ccc(CN4C(C)CCCC4C)cc3)C(=O)N(C)C(C)C)c3ccc4c(c3)OCO4)ccc2c1.Cl (centres undefined) | 0.876 | 1.09 | 0.743 | – | –
CC1(C)NC(=O)NC1=O [5,5-Dimethylhydantoin] | 0.947 | 1.13 | 1.16 | 0.985 | –
CCCc1cc(=O)[nH]c(=S)[nH]1 [6-Propyl-2-thiouracil] | 0.769 | 0.693 | 0.757 | 0.709 | –
COc1cc(C(C)C)c2c(c1)S(=O)(=O)N(COc1cc(=O)n3cccc(OCCN4CCCCC4)c3n1)C2=O | 0.875 | 0.787 | 0.903 | 0.835 | –
COCCO [2-Methoxyethanol] | 0.833 | 0.983 | 1.13 | 1.58 | 0.891
NCCOCCOCCN [2,2'-[Ethane-1,2-diylbis(oxy)]diethanamine] | 1.6 | 0.964 | 1.12 | 1.13 | –
OCCC(F)(F)C(F)(F)C(F)(F)C(F)(F)C(F)(F)C(F)(F)F [3,3,4,4,5,5,6,6,7,7,8,8,8-Tridecafluorooctan-1-ol] | 1.36 | 0.849 | 1.08 | 0.998 | –
Cc1oc2c(NC(=O)c3c(Cl)cccc3Cl)cccc2c1C(C)(C)O | 1.01 | 1.14 | 0.7 | – | –

Structure (SMILES) | Wnt reporter firefly/Renilla luciferase ratio (concentration: 0.1 uM) | Wnt reporter firefly/Renilla luciferase ratio (concentration: 1 uM) | Wnt reporter firefly/Renilla luciferase ratio (concentration: 10 uM) | Wnt reporter firefly/Renilla luciferase ratio (concentration: 100 uM) | Wnt reporter firefly/Renilla luciferase ratio (concentration: 0.01 uM)
CC(C)(C)c1cc(O)c(C(C)(C)C)cc1O [2,5-Di-tert-butylbenzene-1,4-diol] | 1.14 | 0.988 | 1.13 | – | –
COc1ccc(/C=C/S(=O)(=O)[N-]C(=O)c2ccc(C)cc2Cl)cc1.[Na+] | 1.08 | 1.09 | 1.13 | 0.437 | –
O=C([O-])c1ccccc1.[Na+] [Sodium benzoate] | 1 | 1.12 | 0.968 | 1.45 | –
CCCCCCCCCC [Decane] | 1.01 | 0.915 | 1.09 | 1.08 | –
C1N2CN3CN1CN(C2)C3 [Methenamine] | 1.17 | 1.16 | 1.23 | 1.71 | –
COc1cc(/C=C/C(=O)CC(=O)/C=C/c2ccc(O)c(OC)c2)ccc1O [Curcumin] | 0.875 | 1.1 | 0.69 | – | 1.1
OC[C@@H](O)[C@@H](O)[C@H](O)[C@H](O)CO [D-Mannitol] | 1.05 | 1.23 | 1.07 | 1.39 | –
O=C([O-])c1[nH]n(-c2ccc(S(=O)(=O)[O-])cc2)c(=O)c1/N=N/c1ccc(S(=O)(=O)[O-])cc1.[Na+].[Na+].[Na+] [FD&C Yellow 5] | – | – | – | 1.86 | –
O=C1O[C@H]([C@@H](O)CO)C([O-])=C1O.[Na+] [Sodium L-ascorbate] | 1.1 | 1.07 | 1.35 | 1.21 | –
Nc1nc(N)c2nc(CNc3ccc(C(=O)N[C@@H](CCC(=O)O)C(=O)O)cc3)cnc2n1 [4-Aminofolic acid] | 1.15 | 0.975 | 0.259 | 0.385 | –
COC(=O)CCC(=O)OC [Dimethyl succinate] | 1.02 | 1.01 | 1.13 | 1.29 | –
Cc1ccc2oc(CN(Cc3ccccc3)C(=O)Nc3c(F)cc(F)cc3F)c(-c3ccc(Cl)cc3)c2c1 | 1.24 | 1.21 | 1.07 | 0.909 | –
C[C@]12CC[C@@H]3c4ccc(O)cc4CC[C@H]3[C@@H]1CC[C@@H]2O [17beta-Estradiol] | 0.999 | 0.932 | 0.591 | – | –
CCC(C)=NO [2-Butanone oxime] | 1 | 0.928 | 1.1 | 1.33 | –
Cc1ccc(N(C)C)cc1 [N,N,4-Trimethylaniline] | 1.08 | 1.2 | 1.06 | 0.933 | –
Cc1ccc(C(C)C)cc1 [p-Cymene] | 1.31 | 1.11 | 1.1 | 1.52 | –
CCC1(O)C(=O)OCc2c1cc1n(c2=O)Cc2cc3c(CN(C)C)c(O)ccc3nc2-1 (centres undefined) [Topotecan] | 0.488 | 0.629 | 0.537 | 0.228 | 0.888
CCCOC(=O)c1cc(O)c(O)c(O)c1 [Propyl gallate] | 1.13 | 1.01 | 0.936 | 0.729 | –
CCCCCCCCN(C)C [N,N-Dimethyloctylamine] | 1.11 | 1.08 | 0.836 | 1.23 | –
CCCCCCCCCCCCCCCO [1-Pentadecanol] | 1.05 | 0.896 | 1.04 | 0.942 | –
O=[N+]([O-])c1ccc([O-])cc1.[Na+] [Sodium 4-nitrophenolate] | 1.02 | 0.944 | 1.34 | 0.608 | –
CC(C(C)N1CC(=O)NC(=O)C1)N1CC(=O)NC(=O)C1 (centres undefined) | 1.88 | – | – | – | –

Rewritten as tab-separated lines: part of the list above.
Structure (SMILES)	Wnt reporter firefly/Renilla luciferase ratio (concentration: 0.1 uM)	Wnt reporter firefly/Renilla luciferase ratio (concentration: 1 uM)	Wnt reporter firefly/Renilla luciferase ratio (concentration: 10 uM)	Wnt reporter firefly/Renilla luciferase ratio (concentration: 100 uM)	Wnt reporter firefly/Renilla luciferase ratio (concentration: 0.01 uM)
CSC(=O)c1cccc2nnsc12 [Acibenzolar-S-methyl]	0.92	0.985	0.879	1.58	0.853
OCCC(F)(F)C(F)(F)C(F)(F)C(F)(F)C(F)(F)C(F)(F)C(F)(F)C(F)(F)F [1,1,2,2-Tetrahydroperfluoro-1-decanol]	1.3	0.898	1.2	1.28	–
Nc1ccc2c(c1)C(=O)c1ccccc1C2=O [2-Aminoanthraquinone]	1.06	1.2	1.28	1.58	–
O=C(O)c1cccc(C(=O)O)c1 [1,3-Benzenedicarboxylic acid]	1.21	1.28	1.24	1.02	–
O=C(O)c1ccccc1 [Benzoic acid]	1.19	0.956	0.996	1.03	–
COc1ccc2cc(S(=O)(=O)NC(CC(=O)NC(Cc3ccc(CN4C(C)CCCC4C)cc3)C(=O)N(C)C(C)C)c3ccc4c(c3)OCO4)ccc2c1.Cl (centres undefined)	0.876	1.09	0.743	–	–
COCCO [2-Methoxyethanol]	0.833	0.983	1.13	1.58	0.891
Cc1oc2c(NC(=O)c3c(Cl)cccc3Cl)cccc2c1C(C)(C)O	1.01	1.14	0.7	–	–
COc1cc(/C=C/C(=O)CC(=O)/C=C/c2ccc(O)c(OC)c2)ccc1O [Curcumin]	0.875	1.1	0.69	–	1.1
OC[C@@H](O)[C@@H](O)[C@H](O)[C@H](O)CO [D-Mannitol]	1.05	1.23	1.07	1.39	–
O=C([O-])c1[nH]n(-c2ccc(S(=O)(=O)[O-])cc2)c(=O)c1/N=N/c1ccc(S(=O)(=O)[O-])cc1.[Na+].[Na+].[Na+] [FD&C Yellow 5]	–	–	–	1.86	–
COC(=O)CCC(=O)OC [Dimethyl succinate]	1.02	1.01	1.13	1.29	–
Cc1ccc(C(C)C)cc1 [p-Cymene]	1.31	1.11	1.1	1.52	–
CCCCCCCCN(C)C [N,N-Dimethyloctylamine]	1.11	1.08	0.836	1.23	–
CC(C(C)N1CC(=O)NC(=O)C1)N1CC(=O)NC(=O)C1 (centres undefined)	1.88	–	–	–	–

The list goes on:

Structure (SMILES) | Wnt reporter firefly/Renilla luciferase ratio (concentration: 0.1 uM) | Wnt reporter firefly/Renilla luciferase ratio (concentration: 1 uM) | Wnt reporter firefly/Renilla luciferase ratio (concentration: 10 uM) | Wnt reporter firefly/Renilla luciferase ratio (concentration: 100 uM) | Wnt reporter firefly/Renilla luciferase ratio (concentration: 0.01 uM)
CCOC(=O)COc1ccc2c(c1)CC(NCC(O)c1cccc(Cl)c1)CC2.Cl (centres undefined) | 1.06 | 1.18 | 1.15 | 1.19 | –
Oc1ccc(C(c2ccc(O)cc2)C(Cl)(Cl)Cl)cc1 [2,2-Bis(4-hydroxyphenyl)-1,1,1-trichloroethane] | 1.3 | 0.957 | 0.541 | – | 1.02
CCOCCOCCOCCO [2-[2-(2-Ethoxyethoxy)ethoxy]ethanol] | – | – | – | 1.62 | –
CC(O)CN(CCN(CC(C)O)CC(C)O)CC(C)O (centres undefined) [N,N,N',N'-Tetrakis(2-Hydroxypropyl)ethylenediamine] | 1.11 | 0.855 | 1.03 | 1.08 | –
Nc1nc(=O)c2nc(CNc3ccc(C(=O)N[C@@H](CCC(=O)O)C(=O)O)cc3)cnc2[nH]1 [Folic acid] | 1.38 | 1.01 | 0.97 | 1.26 | –
CC(C)(O)c1ccc(CNC(=O)c2cccnc2Oc2ccc3nonc3c2)cc1 | 1.11 | 0.899 | 0.958 | 0.232 | –
[Cl-].[K+] | 0.807 | 0.821 | 0.758 | 1.39 | 0.834
CCCCCCCC(=O)O [Octanoic acid] | 0.998 | 1.11 | 1.2 | 1.11 | –
O=C1CCCCC1 [Cyclohexanone] | 1.22 | 1.2 | 1.33 | 1.08 | –
O=C(O)c1cccc(Oc2ccccc2)c1 [3-Phenoxybenzoic acid] | 1.23 | 0.897 | 0.92 | 0.89 | –
Cl.O=C(c1ccc(OCCN2CCCCC2)cc1)c1c(-c2ccc(O)cc2)sc2cc(O)ccc12 [Raloxifene hydrochloride] | 0.859 | 0.911 | 0.518 | – | –
O=C(O)C1(C(=O)Nc2ccc(Cl)cc2Cl)CC1 [Cyclanilide] | 1.6 | 1.16 | 1.53 | 0.874 | 1.46
OC(CCl)CCl [1,3-Dichloro-2-propanol] | 1.29 | 1.29 | 1.36 | 1.58 | –
CCCCOCCO [2-Butoxyethanol] | 1.04 | 0.988 | 0.907 | 1.06 | –
CC(=O)CC(c1ccccc1)c1c(O)c2ccccc2oc1=O (centres undefined) [Warfarin] | 0.905 | 1.11 | 1.07 | 0.631 | –
CC(C)C(=O)Nc1ccc([N+](=O)[O-])c(C(F)(F)F)c1 [Flutamide] | 0.956 | 0.799 | 1.13 | 0.325 | –
CCc1nc(N)nc(N)c1-c1ccc(Cl)cc1 [Pyrimethamine] | 1.17 | 1.01 | 0.586 | 0.452 | –
Cc1[nH]nc2c1N=C(c1ccccc1Cl)c1cc([N+](=O)[O-])ccc1N2 | 1.21 | 1.72 | 104 | 89.3 | –
c1ccc2cc3ccccc3cc2c1 [Anthracene] | – | – | – | 2.12 | –
O=C1CCC(C2CCCCC2)CC1 [4-Cyclohexylcyclohexanone] | 1.1 | 1.01 | 1 | 1.33 | –
COC(=O)c1ccc(I)cc1S(=O)(=O)[N-]C(=O)Nc1nc(C)nc(OC)n1.[Na+] [Iodosulfuron-methyl-sodium] | 0.881 | 1.01 | 1.38 | 1.15 | 1.03
